{"source": "PubChem BioAssay AID504444", "about": "(National Center for Advancing Translational Sciences (NCATS), 2011)", "note": "In all, about 360,000 compounds went through this assay and about 7,500 (2.1%) were called active. The inconclusive results got no clear call from the source; some entries with a clear call stand among them for comparison. Calls follow the shape of the dose curve; as a rule, active = well fitted inhibition curve with a large enough effect; inconclusive = small, poorly fitted or top-dose-only effect, or effect the other way; inactive = flat fitted curve, though single readings scatter. Where the call is inconclusive, the potency comes from a doubtful curve fit. % is scaled to controls: 0 for no effect and ±100 for the full control effect; potency is read from the fitted curve at half-maximal effect."}
{"experiment": "Nrf2 qHTS screen for inhibitors; also: nearly all actives have a fitted effect of over 60% in size", "conditions": "A549 ARE-Fluc reporter, luciferase luminescence, 18-24 h; activity change, negative = inhibition: at 46 µM (top of the series)", "summary_of_the_method": "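Nrf2 function is reported as luminescence of an ARE-controlled luciferase in A549 cells. Compounds were tested at several concentrations, and a CellTiter-Fluor read on the same wells flagged cytotoxicity.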"}
{"smiles": "COC(=O)C1=C(c2ccc(F)cc2OCc2ccccc2)C[C@@H]2CC[C@H]1N2C(=O)NCc1cccc(F)c1", "Potency": "inconclusive: 29.1 µM [falling, single point]"}
{"smiles": "COc1ccc(-c2cc(=NCC(=O)O)c3ccccc3o2)cc1", "Potency": "inconclusive: 6.51 µM [activator, single point]"}
{"smiles": "COC(=O)C1=C(c2ccccc2OCc2ccccc2)C[C@@H]2CC[C@H]1N2C(=O)NCCc1ccc(F)cc1", "Potency": "inconclusive: 29.1 µM [falling, single point]"}
{"smiles": "CCc1ccc(-n2nc(C)c3c2NC(=O)CSC3c2ccccc2C)cc1", "note": "(stereo not drawn)", "Potency": "inconclusive: 8.2 µM [activator, partial curve]"}
{"smiles": "CC(=O)c1ccc(OC(=O)N(C)c2ccccc2)cc1", "Potency": "inconclusive: 16.4 µM [activator, partial curve]"}
{"smiles": "O=C1/C(=C\\c2ccncc2)N2CCC1CC2", "Potency": "inconclusive: 2.06 µM [falling, full curve, poor fit]"}
{"smiles": "CCOc1ccccc1Oc1coc2cc(OC(=O)N(C)C)ccc2c1=O", "activity change, negative = inhibition": "inactive: 7.66%"}
{"smiles": "c1ccc2c3c(ccc2c1)OCC1CONC31", "note": "(stereo not drawn)", "Potency": "inconclusive: 32.6 µM [activator, partial curve, poor fit]"}
{"smiles": "COc1ccccc1N1CCN(Cc2ccc(Br)cc2)CC1", "Potency": "inconclusive: 25.9 µM [falling, partial curve, poor fit]"}
{"smiles": "CCCCCCCCCCCCn1ccc(=N)cc1", "Potency": "active: 20.6 µM"}
{"smiles": "COC(=O)C1=C(c2ccc(OCc3ccccc3)cc2)C[C@@H]2CC[C@H]1N2C(=O)NC1CCN(Cc2ccccc2)CC1", "Potency": "active: 20.6 µM"}
{"smiles": "COc1ccc(-n2nc(C(=O)NCC(=O)N3CCC4(CC3)OCCO4)c3ccccc3c2=O)cc1Cl", "Potency": "inconclusive: 2.59 µM [activator, single point]"}
{"smiles": "COc1cc2c(ccc3c4cc(OC)c(OC)cc4c[n+](C)c23)cc1O", "Potency": "inconclusive: 5.17 µM [falling, partial curve, poor fit]"}
{"smiles": "CC(=O)N1CCC2(CC1)CC(=O)c1cc(OCC(=O)N3CCC4(CC3)OCCO4)ccc1O2", "activity change, negative = inhibition": "inactive: 3.62%"}
{"smiles": "CCOC(=O)C1C(=O)N(C)C2(C)CC1c1cc(OC)ccc1O2", "note": "(stereo not drawn)", "Potency": "inconclusive: 0.731 µM [activator, partial curve]"}
{"smiles": "COc1ccc(-n2c(/C=C3/C(=O)Nc4ccccc43)nc3ccccc3c2=O)cc1", "Potency": "inconclusive: 7.31 µM [falling, full curve, poor fit]"}
{"smiles": "Cc1cccc(-n2c(O)c(C)c(=O)[nH]c2=S)c1", "activity change, negative = inhibition": "inactive: 10.6%"}
{"smiles": "COc1ccc2nc(NC3=NCCN3)sc2c1", "Potency": "inconclusive: 2.06 µM [activator, full curve]"}
